No constants are given. Whether binding was seen depends on the method and setting. For some of these results: Binding seen in cells or lysates may run through a third protein. Some binding calls cover weakened binding; strength is not graded here. Sequences can lack the tags named with a protein. Each block holds one molecule with its values, some of them ahead of it.
Tests used:
[1] = target: T1, GST-fused HECTD3 DOC domain (216-393 aa) (UniProt Q5T447); experiment: pull-down; GST fusions and Flag-tagged partner cotransfected in HEK293T for 24 h; lysates on Glutathione Sepharose beads, 2 h at 4 C, five washes; Western blot
T1 sequence: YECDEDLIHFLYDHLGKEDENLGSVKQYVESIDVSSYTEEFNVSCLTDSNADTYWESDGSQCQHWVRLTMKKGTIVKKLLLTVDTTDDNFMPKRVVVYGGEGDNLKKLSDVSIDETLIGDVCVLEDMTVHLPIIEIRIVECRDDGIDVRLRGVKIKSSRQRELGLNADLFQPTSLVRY

[2] = target: T2, purified recombinant GST-HECTD3 (UniProt Q5T447); experiment: pull-down; purified His-p62 (3 ug) mixed with GST-UbcH5b (6 ug) or GST-HECTD3 (6 ug), Glutathione Sepharose beads, 2 h at 4 C, five washes; blot with anti-p62 antibody; both purified
T2 sequence: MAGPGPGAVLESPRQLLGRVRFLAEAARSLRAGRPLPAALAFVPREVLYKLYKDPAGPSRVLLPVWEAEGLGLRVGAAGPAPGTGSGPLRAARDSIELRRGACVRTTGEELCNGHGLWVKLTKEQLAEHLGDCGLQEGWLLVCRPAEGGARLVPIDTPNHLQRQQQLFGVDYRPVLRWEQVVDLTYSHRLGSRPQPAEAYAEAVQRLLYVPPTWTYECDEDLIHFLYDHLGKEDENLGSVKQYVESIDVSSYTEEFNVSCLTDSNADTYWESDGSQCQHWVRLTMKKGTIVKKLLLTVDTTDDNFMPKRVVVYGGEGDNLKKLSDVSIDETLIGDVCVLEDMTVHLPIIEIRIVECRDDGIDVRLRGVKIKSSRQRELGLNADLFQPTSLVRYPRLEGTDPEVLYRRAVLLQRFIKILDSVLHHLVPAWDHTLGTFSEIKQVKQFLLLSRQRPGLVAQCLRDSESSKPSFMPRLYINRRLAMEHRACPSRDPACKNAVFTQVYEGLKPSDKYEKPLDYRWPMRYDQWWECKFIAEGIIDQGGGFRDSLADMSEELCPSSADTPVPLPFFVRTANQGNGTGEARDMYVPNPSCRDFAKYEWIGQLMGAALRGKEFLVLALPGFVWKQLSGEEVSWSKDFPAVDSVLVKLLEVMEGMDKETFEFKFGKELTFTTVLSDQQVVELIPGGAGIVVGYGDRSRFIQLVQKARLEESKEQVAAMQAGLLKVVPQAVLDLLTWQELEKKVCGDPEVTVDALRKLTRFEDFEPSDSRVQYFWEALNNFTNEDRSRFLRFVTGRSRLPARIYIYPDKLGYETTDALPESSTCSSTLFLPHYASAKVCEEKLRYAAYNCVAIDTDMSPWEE

[3] = target: endogenous p62 (human (endogenous in HEK293T)) (UniProt Q13501); experiment: co-IP; p62 rabbit antibody (3 ug) with Protein A/G on whole HEK293T lysates, 12 h at 4 C; IP buffer 0.5% NP-40, 50 mM Tris-HCl pH 7.4, 50 mM EDTA, 150 mM NaCl; rabbit IgG as negative control; Western blot
GST-p62 = GST-p62 (UniProt Q13501); experiment: pull-down; GST fusions and Flag-tagged partner cotransfected in HEK293T for 24 h; lysates on Glutathione Sepharose beads, 2 h at 4 C, five washes; Western blot

- binding [1]: binds
Molecule: p62-Flag (from UniProt Q13501 1-440)

- binding [2]: binds
Molecule: purified His-p62 (from UniProt Q13501 1-440)

- binding [3]: binds
- binding (GST-p62): binds
B1: exogenously expressed Flag-HECTD3 (enzyme, UniProt Q5T447 1-861)
chain: T2 sequence

— publication PMC11530666
